# Values of other authors in US6482863B2, “Insect repellant formulation deliverable by piezoelectric device” (S. C. Johnson & Son, Inc., priority 2000, dated 2002).
# Some of these results come from one statement about several compounds together.
# Settings: at 25° C.
structure (smiles),measurement,value
CCOCCO [ethylene glycol ethyl ether],viscosity of solvent,below 2.6 cp
